This assay concerns CD2F1 mice, nontumored, toxicity/survival. Description: NCI In Vivo Anticancer Drug Screen. Data for tumor model Nontumored Animals (Toxicity Test) in CD2F1 (CDF1) mice.

Values are animals surviving of animals treated; these mice carried no tumour. Counts of survivors are from the toxicity check (mostly the fifth day) where no day follows; animals may have died later. Schedules are NCI's codes, read here as Q, the interval in days (D) or hours (H), X, the number of doses.

In the case of `S=c1nc[nH]c2nc[nH]c12`, the survivor count (dose: 15.6 mg/kg/injection, schedule: Q01DX009 (ip), vehicle: alkali diluted with saline) is 5 of 5; the survivor count (dose: 22.0 mg/kg/injection, schedule: Q01DX009 (ip), vehicle: Klucel (hydroxypropylcellulose) (HPC)) was 10 of 10; the survivor count (dose: 25.9 mg/kg/injection, schedule: Q01DX009 (ip), vehicle: alkali diluted with saline) is reported as 5 of 5; the survivor count (dose: 33.0 mg/kg/injection, schedule: Q01DX009 (ip), vehicle: Klucel (hydroxypropylcellulose) (HPC)) is recorded as 8 of 10; the survivor count (dose: 43.2 mg/kg/injection, schedule: Q01DX009 (ip), vehicle: alkali diluted with saline) was 5 of 5; the survivor count (dose: 43.2 mg/kg/injection, schedule: Q04DX003 (ip), vehicle: other) is reported as 4 of 4. Moreover, the survivor count reads like this: (dose: 50.0 mg/kg/injection, schedule: Q01DX009 (ip), vehicle: Klucel (hydroxypropylcellulose) (HPC)) 10 of 10; (dose: 72.0 mg/kg/injection, schedule: Q01DX009 (ip), vehicle: alkali diluted with saline) 5 of 5; (dose: 72.0 mg/kg/injection, schedule: Q04DX003 (ip), vehicle: other) 4 of 4; (dose: 100.0 mg/kg/injection, schedule: Q01DX001 (ip), vehicle: alkali diluted with water) 4 of 4; (dose: 120.0 mg/kg/injection, schedule: Q01DX009 (ip), vehicle: alkali diluted with saline) 5 of 5; (dose: 120.0 mg/kg/injection, schedule: Q04DX003 (ip), vehicle: other) 4 of 4. The survivor count was 4 of 4 (dose: 167.0 mg/kg/injection, schedule: Q01DX001 (ip), vehicle: alkali diluted with water); 4 of 4 (dose: 200.0 mg/kg/injection, schedule: Q04DX003 (ip), vehicle: other); 4 of 4 (dose: 278.0 mg/kg/injection, schedule: Q01DX001 (ip), vehicle: alkali diluted with water).

With `C=CCNC(=O)NCC=C`, the survivor count is listed as 10 of 10 (dose: 25.0 mg/kg/injection, schedule: Q01DX006 (ip), vehicle: saline); 10 of 10 (dose: 50.0 mg/kg/injection, schedule: Q01DX006 (ip), vehicle: saline); 10 of 10 (dose: 100.0 mg/kg/injection, schedule: Q01DX006 (ip), vehicle: saline); 10 of 10 (dose: 200.0 mg/kg/injection, schedule: Q01DX006 (ip), vehicle: saline).

For `CCCCN(C)N=Nc1ccc(C(N)=O)cc1`, the survivor count is, setting by setting: (dose: 19.0 mg/kg/injection, schedule: Q01DX009 (ip), vehicle: Klucel (hydroxypropylcellulose) (HPC)) 10 of 10; (dose: 29.0 mg/kg/injection, schedule: Q01DX009 (ip), vehicle: Klucel (hydroxypropylcellulose) (HPC)) 10 of 10; (dose: 44.0 mg/kg/injection, schedule: Q01DX009 (ip), vehicle: Klucel (hydroxypropylcellulose) (HPC)) 10 of 10; (dose: 67.0 mg/kg/injection, schedule: Q01DX009 (ip), vehicle: Klucel (hydroxypropylcellulose) (HPC)) 10 of 10; (dose: 100.0 mg/kg/injection, schedule: Q01DX009 (ip), vehicle: Klucel (hydroxypropylcellulose) (HPC)) 10 of 10.

As for `O=[N+]([O-])c1nccn1CC(O)CO` (stereo unspecified), the survivor count was 3 of 3 (dose: 50.0 mg/kg/injection, schedule: Q01DX001 (ip), vehicle: saline); 3 of 3 (dose: 100.0 mg/kg/injection, schedule: Q01DX001 (ip), vehicle: saline); 3 of 3 (dose: 200.0 mg/kg/injection, schedule: Q01DX001 (ip), vehicle: saline); 3 of 3 (dose: 360.0 mg/kg/injection, schedule: Q01DX001 (ip), vehicle: saline + alcohol); 3 of 3 (dose: 400.0 mg/kg/injection, schedule: Q01DX001 (ip), vehicle: saline); 3 of 3 (dose: 600.0 mg/kg/injection, schedule: Q01DX001 (ip), vehicle: saline + alcohol). Also, the survivor count (dose: 1000.0 mg/kg/injection, schedule: Q01DX001 (ip), vehicle: saline + alcohol) is listed as 3 of 3.
